Laboratory results as given in PubChem BioAssay AID488835 (Broad Institute, 2010).
Screen size: about 1,400 compounds; about 140 (10%) were called active.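 Rule for the calls: active = Half-maximal inhibitory dose from the fit at or below ten times the top valid tested dose; inconclusive = Invalid fit, or flat curve showing 30 to 70% inhibition; inactive = the rest.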 This is a selection; strong and weak results do not stand in their true shares. Entries with a potency or affinity are not part of this list.

Protein sequences, listed by entry. Tags and fused reporters are not part of them. Lines headed by an entry give the natural chain unless they say otherwise; changes in a name come on top.
UniProt Q9H3R0: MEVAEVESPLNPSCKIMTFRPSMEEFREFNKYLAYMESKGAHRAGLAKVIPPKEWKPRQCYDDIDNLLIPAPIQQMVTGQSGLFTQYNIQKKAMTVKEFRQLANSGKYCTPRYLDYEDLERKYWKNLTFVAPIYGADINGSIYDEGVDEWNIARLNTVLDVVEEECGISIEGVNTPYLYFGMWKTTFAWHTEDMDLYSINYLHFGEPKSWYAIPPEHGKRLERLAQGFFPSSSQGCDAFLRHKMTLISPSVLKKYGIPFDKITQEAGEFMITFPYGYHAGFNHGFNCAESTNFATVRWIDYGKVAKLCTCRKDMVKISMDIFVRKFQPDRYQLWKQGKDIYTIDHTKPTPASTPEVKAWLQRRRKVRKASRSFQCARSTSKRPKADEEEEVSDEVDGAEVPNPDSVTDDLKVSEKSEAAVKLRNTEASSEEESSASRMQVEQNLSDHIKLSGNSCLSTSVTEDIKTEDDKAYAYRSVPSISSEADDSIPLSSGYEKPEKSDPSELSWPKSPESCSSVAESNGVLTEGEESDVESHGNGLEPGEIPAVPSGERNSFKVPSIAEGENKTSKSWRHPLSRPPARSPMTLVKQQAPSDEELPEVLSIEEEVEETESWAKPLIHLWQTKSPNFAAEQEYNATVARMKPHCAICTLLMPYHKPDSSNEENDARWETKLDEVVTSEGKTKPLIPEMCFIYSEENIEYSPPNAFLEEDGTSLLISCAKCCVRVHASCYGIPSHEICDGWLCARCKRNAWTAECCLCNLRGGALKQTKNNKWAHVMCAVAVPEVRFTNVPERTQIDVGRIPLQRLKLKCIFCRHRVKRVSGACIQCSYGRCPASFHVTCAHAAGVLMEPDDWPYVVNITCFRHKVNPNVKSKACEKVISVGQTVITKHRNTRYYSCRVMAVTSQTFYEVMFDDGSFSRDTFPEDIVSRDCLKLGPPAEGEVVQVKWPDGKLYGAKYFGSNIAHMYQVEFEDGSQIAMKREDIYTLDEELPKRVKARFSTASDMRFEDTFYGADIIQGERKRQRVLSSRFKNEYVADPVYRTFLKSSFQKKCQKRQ

The compounds below were run against Lysine-specific demethylase 4C (Homo sapiens) (UniProt Q9H3R0) (assay: GASC-1 (JMJD2C) histone demethylase inhibitors, dose response, biochemical, DELFIA europium, cherry-picked samples (AID 488835;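 note: signal is the H3K9me2 demethylation product detected by a dimethyl-specific antibody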)). Conditions: GST-JMJD2C(1-420), H3K9me3 demethylation; at 6 µM (top of the series) unless noted.

Compound	activity change, negative = inhibition
Cc1cccc(N2C(=O)NC(=O)/C(=C/c3ccc(N4CCOCC4)cc3)C2=O)c1	inactive: -0.79%
CN1CCN(c2ccc(C=O)cc2)CC1	inactive: 3.33%
C=CCC1C(=O)NC(=S)NC1=O	inactive: -4.69%
CN(C)[C@@H]1C(=O)C(C(N)=O)=C(O)[C@@]2(O)C(=O)C3=C(O)c4c(O)cccc4[C@@](C)(O)C3C[C@@H]12 (stereo not given in full)	inactive: 1.41%
COc1cccc(N2C(=O)NC(=O)/C(=C/c3ccc4c(c3)Cc3ccccc3-4)C2=O)c1	inactive: -11.6%
O=C(c1cccs1)N1C2CCC1CC(O)(c1cccnc1)C2 (stereo not given)	inactive: 2.1%
Cc1sc2c(c1C)C(c1ccc(C(C)(C)C)cc1)=NCC(=O)N2CC(=O)Nc1nccs1	inactive: 1.88%
CC(C)(C)[C@]1(O)C[C@@H]2OC(=O)C[C@@]23C(=O)O[C@@H]2OC(=O)[C@@H](O)C213 (stereo not given in full)	inactive: 2.46% [at 1.6 µM]
CCCCCSc1cc(O)c(C(CNC)C(C)C)cc1OC (stereo not given)	inactive: 8.89%
C[C@@H]1CCC2[C@@H](C)C(=O)O[C@@H]3OC4(C)CCC1[C@@]23OO4 (stereo not given in full)	inactive: -3.3%
CCN(CC)c1ccc(/C=C2\C(=O)NC(=O)N(CC3CCCO3)C2=O)cc1 (stereo not given)	inactive: -4.96%
CN(C)c1ccc(/C=C2\C(=O)NC(=O)N(CCc3ccc(F)cc3)C2=O)cc1	inactive: -9%
COCc1cc(OC(=O)N(C)C)nc2c1c(C)nn2C	inactive: 1.34% [at 1.6 µM]
Cc1ccc2[nH]c(=S)n(-c3cccnc3)c(=O)c2c1	inactive: 1.94% [at 1.6 µM]
N/C(=N\[N+](=O)[O-])N1CCN(C(=O)c2ccccc2)CC1	inactive: 4.19%
CC(=NCc1ccc(F)cc1)c1c(O)n(C)c(=O)n(C)c1=O	inactive: -2.27%
Cc1[nH]c2ccc(OC(F)(F)F)cc2c1CCNCc1cccc([N+](=O)[O-])c1	inactive: -2.04%
O=C1NC(=S)NC(=O)C1C1CCCCC1	inactive: -7.35%

Compound	activity change, negative = inhibition
O=C1NC(=S)N(C2CC2)C(=O)/C1=C/c1ccc2c(c1)CCN2CCCCl	inactive: -6.44%
O=P(OCC(F)(F)C(F)F)(N1CCCCC1)N1CCCCC1	inactive: 20.6%
CCN1C(=O)NC(=O)/C(=C\c2cn(CC(=O)N3CCCCC3)c3ccccc23)C1=O	inactive: 0.399%
COc1cc(Br)cc(CN2CCN(C)CC2)c1O	inactive: 3.64%
Cc1ccc2nc3c(cc2c1)CC1(C(=O)N(C)C(=O)N(C)C1=O)C1CCCCN31 (stereo not given)	inactive: -3.67%
CN1CCN(c2nc3ccccn3c(=O)c2C=C2C(=O)N(C)C(=O)N(C)C2=O)CC1	inactive: -6.12%
CCN1CCN(c2ccc([N+](=O)[O-])cc2C=C2C(=O)NC(=O)NC2=O)CC1	inactive: -3.77%
COC(=O)C1=C(c2ccc(OCc3ccccc3)cc2)C[C@@H]2CC[C@H]1N2C(=O)NCc1ccc([N+](=O)[O-])cc1	inactive: 4.6%
c1ccc2c3c(ccc2c1)OCC1CONC31 (stereo not given)	inactive: 6.65%
CC1C(c2cccs2)=[N+]([O-])C(C)(C(=O)c2ccc(Cl)cc2)N1O (stereo not given)	inactive: 0.0602%
O=C1NC(=O)N(Cc2ccccc2)C(=O)/C1=C/C=C/c1ccco1	inactive: -4.71%
COc1ccc(N2C(=O)NC(=O)/C(=C/c3cccc(OC(=O)c4cccs4)c3)C2=O)cc1Cl	inactive: -1.93%
CCOC(=O)/C(=N\Nc1ccccc1)N1CC1	inactive: 5.53%
CN(C)c1ccc(/C=C2/C(=O)NC(=O)N(Cc3ccco3)C2=O)cc1	inactive: -4.33%
CCC(=NCC1CCCO1)c1c(O)[nH]c(=O)[nH]c1=O (stereo not given)	inactive: 0.744%
C=CCn1c(O)c(/C(C)=N/NC(=S)Nc2ccccc2)c(=O)[nH]c1=O	inactive: 0.744%
CCc1ccc(N2C(=O)NC(=O)/C(=C\c3cc(C)n(-c4cc(C(=O)O)cc(C(=O)O)c4)c3C)C2=O)cc1	inactive: -5.26%

Not a retest: 10 of the compounds above.
Compound	activity change, negative = inhibition
Cc1sc2c(c1C)C(c1ccc(C(C)(C)C)cc1)=NCC(=O)N2CC(=O)Nc1nccs1	inactive: 1.88%
CC(C)(C)[C@]1(O)C[C@@H]2OC(=O)C[C@@]23C(=O)O[C@@H]2OC(=O)[C@@H](O)C213 (stereo not given in full)	inactive: 2.46% [at 1.6 µM]
CCCCCSc1cc(O)c(C(CNC)C(C)C)cc1OC (stereo not given)	inactive: 8.89%
C[C@@H]1CCC2[C@@H](C)C(=O)O[C@@H]3OC4(C)CCC1[C@@]23OO4 (stereo not given in full)	inactive: -3.3%
CCN(CC)c1ccc(/C=C2\C(=O)NC(=O)N(CC3CCCO3)C2=O)cc1 (stereo not given)	inactive: -4.96%
CN(C)c1ccc(/C=C2\C(=O)NC(=O)N(CCc3ccc(F)cc3)C2=O)cc1	inactive: -9%
COCc1cc(OC(=O)N(C)C)nc2c1c(C)nn2C	inactive: 1.34% [at 1.6 µM]
Cc1ccc2[nH]c(=S)n(-c3cccnc3)c(=O)c2c1	inactive: 1.94% [at 1.6 µM]
N/C(=N\[N+](=O)[O-])N1CCN(C(=O)c2ccccc2)CC1	inactive: 4.19%
CC(=NCc1ccc(F)cc1)c1c(O)n(C)c(=O)n(C)c1=O	inactive: -2.27%
